According to the supplement of paper PMC6331611:
± gives the standard deviation of the averaged measurements. Whole data set: some 1,600 compounds, median “normalized growth (OD600, IQM-normalized) in LPM” near 1, cut for the lowest 2% near 0.014. The list shows a part of the results.

System: Salmonella enterica serovar Typhimurium SL1344
Test: normalized growth (OD600, IQM-normalized) in LPM (fraction of plate interquartile mean); higher = more bacterial growth (less inhibition)
Details: LPM pH 5.8; 10 µM; 16 h

| Compound | normalized growth |
| --- | --- |
| O[C@H]1[C@H](O)[C@@H](O)[C@H](O)[C@@H](O)[C@H]1O | 1.02 ± 0.015 |
| CCCN(CCC)CCc1cccc2c1CC(=O)N2 | 0.919 ± 0.015 |
| COc1cccc2c1C(=O)c1c(O)c3c(c(O)c1C2=O)C[C@@](O)(C(=O)CO)C[C@@H]3O[C@H]1C[C@H](N)[C@@H](O)[C@H](C)O1 | 0.937 ± 0.011 |
| CC(=O)N(c1onc(C)c1C)S(=O)(=O)c1ccc(N)cc1 | 1.08 ± 0.046 |
| Cc1cc(O)cc(C)c1Cl | 0.985 ± 0.23 |
| Oc1cccc(O)c1 | 1.05 ± 0.021 |
| CC(N)CCCC(C)(C)O (centres undefined) | 1.01 ± 0.026 |
| CN1CCCN=C1/C=C/c1cccc(O)c1 | 1.02 ± 0.11 |
| CCOC(=S)SSC(=S)OCC | 0.885 ± 0.073 |
| NC(=O)CC[C@H](N)C(=O)O | 1.04 ± 0.056 |
| O=C1c2ccccc2C(=O)C1c1ccc(Br)cc1 | 0.935 ± 0.066 |
| CC=CC1=C(C(=O)O)N2C(=O)[C@@H](NC(=O)[C@H](N)c3ccc(O)cc3)[C@H]2SC1 | 1.04 ± 0.032 |
| CC1/C=C/C=C/C=C/C=C/C=C/C=C/C=C/C(OC2O[C@H](C)[C@@H](O)[C@H](N)[C@@H]2O)CC(O)C(C(=O)O)C(O)CC(=O)CC(O)CC(O)CC(O)CC(=O)CCCC(=O)CC(=O)OC1C(C)CC(C)C(O)CC(=O)c1ccc(N)cc1 (some centres undefined) | 1.03 ± 0.045 |
| O=c1oc2cc(O)ccc2s1 | 0.91 ± 0.046 |
| CCOc1ccc2nc(S(N)(=O)=O)sc2c1 | 0.838 ± 0.03 |
| CN/C(=N\CCSCc1nc[nH]c1C)NC#N | 0.949 ± 0.034 |
| C/C(=C\C(=O)OCCCCCCCCC(=O)O)C[C@@H]1OC[C@H](C[C@@H]2O[C@H]2[C@@H](C)[C@H](C)O)[C@@H](O)[C@H]1O | 0.00952 ± 0.00017 |
| Cc1ccnc(NS(=O)(=O)c2ccc(N)cc2)n1 | 0.915 ± 0.15 |
| [O-][n+]1cccc(CO)c1 | 1.02 ± 0.07 |
| COc1ccc(C[C@H](N)C(=O)N[C@H]2[C@@H](O)[C@H](n3cnc4c(N(C)C)ncnc43)O[C@@H]2CO)cc1 | 1 ± 0.02 |

Compounds from the list above that contain two or more sulfur atoms:

| Compound | normalized growth |
| --- | --- |
| CCOC(=S)SSC(=S)OCC | 0.885 ± 0.073 |
| CCOc1ccc2nc(S(N)(=O)=O)sc2c1 | 0.838 ± 0.03 |

Additional compounds follow.

| Compound | normalized growth |
| --- | --- |
| CCCCC/C=C/CCC(=O)N[C@H]1[C@H](Oc2c3cc4cc2Oc2ccc(cc2Cl)[C@@H](O[C@@H]2O[C@H](CO)[C@@H](O)[C@H](O)[C@H]2NC(C)=O)[C@@H]2NC(=O)[C@H](NC(=O)[C@@H]4NC(=O)[C@H]4NC(=O)C(Cc5ccc(c(Cl)c5)O3)NC(=O)[C@H](N)c3ccc(O)c(c3)Oc3cc(O)cc4c3)c3ccc(O)c(c3)-c3c(OC4O[C@H](CO)[C@@H](O)[C@H](O)[C@@H]4O)cc(O)cc3[C@@H](C(=O)O)NC2=O)O[C@H](CO)[C@@H](O)[C@@H]1O (some centres undefined) [TEICOPLANIN [A(2-1) shown]] | 0.904 ± 0.052 |
| NCCCC(O)(P(=O)(O)O)P(=O)(O)O | 1.02 ± 0.029 |
| CNC[C@H](O)[C@@H](O)[C@H](O)[C@H](O)CO | 0.964 ± 0.041 |
| Nc1ccc(S(=O)(=O)Nc2cnc3ccccc3n2)cc1 | 1.08 ± 0.045 |
| C[C@H](Cn1cnc2c(N)ncnc21)OCP(=O)(O)O | 0.981 ± 0.024 |
| CCCCNc1cc(C(=O)O)cc(S(N)(=O)=O)c1Oc1ccccc1 | 1.034 ± 0.0062 |
| CC(C)n1c(/C=C/C(O)CC(O)CC(=O)O)c(-c2ccc(F)cc2)c2ccccc21 (centres undefined) | 0.992 ± 0.024 |
| CC[C@H](C)C(=O)O[C@H]1C[C@@H](C)C=C2C=C[C@H](C)[C@H](CC[C@@H]3C[C@@H](O)CC(=O)O3)[C@H]21 | 1.38 ± 0.024 |
| CCN(CC)CCOC(=O)c1ccc(N)cc1 | 0.955 ± 0.032 |
| CC(C)CCCC(C)N (centres undefined) | 1.05 ± 0.09 |
| CC(=O)O[C@H]1C[C@@]2(C)[C@@H](C[C@@H](O)[C@H]3[C@@]4(C)CC[C@@H](O)[C@@H](C)[C@@H]4CC[C@@]32C)/C1=C(\CCC=C(C)C)C(=O)O | 0.491 ± 0.048 |
| CC(=O)N[C@@H](CS)C(=O)O | 1.16 ± 0.078 |
| CNCCCC12CCC(c3ccccc31)c1ccccc12 | 0.972 ± 0.046 |
| OC(c1cc(C(F)(F)F)nc2c(C(F)(F)F)cccc12)C1CCCCN1 (centres undefined) | 1.01 ± 0.035 |
| CCCCCC(=O)O[C@]1(C(C)=O)CC[C@H]2[C@@H]3CCC4=CC(=O)CC[C@]4(C)[C@H]3CC[C@@]21C | 1.07 ± 0.02 |
| Cc1cc(C)cc(OCC2CNC(=O)O2)c1 (centres undefined) | 1.02 ± 0.03 |
| CC(=O)O[C@H]1C[C@@H]2CC[C@@H]3[C@H](CC[C@@]4(C)[C@H]3C[C@H]([N+]3(C)CCCCC3)[C@@H]4OC(C)=O)[C@@]2(C)C[C@@H]1N1CCCCC1 | 0.98 ± 0.049 |
| C[C@@H](O)[C@H]1C(=O)N2C(C(=O)O)=C(S[C@@H]3CN[C@H](C(=O)N(C)C)C3)[C@H](C)[C@H]12 | 0.114 ± 0.016 |
| CCN(CC)C(=O)/C(C#N)=C/c1cc(O)c(O)c([N+](=O)[O-])c1 | 0.924 ± 0.023 |
| C[C@@H]1O[C@@H](OC[C@H]2O[C@@H](Oc3c(-c4ccc(OCCO)c(OCCO)c4)oc4cc(OCCO)cc(O)c4c3=O)[C@H](O)[C@@H](O)[C@@H]2O)[C@H](O)[C@H](O)[C@H]1O | 0.92 ± 0.036 |

| Compound | normalized growth |
| --- | --- |
| C[C@]12C=CC(=O)C=C1CC[C@H]1[C@@H]3C[C@@H](O)[C@](O)(C(=O)CO)[C@@]3(C)C[C@H](O)[C@@]12F | 0.9001 ± 0.0084 |
| CN(C/C=C/c1ccccc1)Cc1cccc2ccccc12 | 0.885 ± 0.019 |
| CN1C(=O)OC(C)(C)C1=O | 1.02 ± 0.031 |
| CC(=O)CCCCn1c(=O)c2c(ncn2C)n(C)c1=O | 0.964 ± 0.027 |
| C[C@H]1O[C@@H](n2cc(F)c(=O)[nH]c2=O)[C@H](O)[C@@H]1O | 0.412 ± 0.11 |
| CCN1CCCC(OC(=O)C(c2ccccc2)c2ccccc2)C1 (centres undefined) | 1.07 ± 0.016 |
| Nc1ccc(C(=O)O)cc1 | 1.04 ± 0.028 |
| CCCCCNC(=N)N/N=C/c1c[nH]c2ccc(OC)cc12 | 1.09 ± 0.12 |
| COc1c(C)c2c(c(O)c1C/C=C(\C)CCC(=O)O)C(=O)OC2 | 1.068 ± 0.0082 |
| O=C(Oc1ccccc1C(=O)O)c1ccccc1O | 0.848 ± 0.029 |
| O=C(O)c1ccc(S(=O)(=O)N(Cl)Cl)cc1 | 0.999 ± 0.013 |
| NCCNCCNCCN | 0.995 ± 0.047 |
| CCCC1O[C@@H]2C[C@H]3[C@@H]4CCC5=CC(=O)C=C[C@]5(C)[C@H]4[C@@H](O)C[C@]3(C)[C@]2(C(=O)CO)O1 (some centres undefined) | 1.01 ± 0.026 |
| Nc1nc(N)c2nc(CNc3ccc(C(=O)N[C@@H](CCC(=O)O)C(=O)O)cc3)cnc2n1 | 1.14 ± 0.045 |
| CC(C(=O)O)c1cccc(C(=O)c2ccccc2)c1 (centres undefined) | 1 ± 0.056 |
| CCOC(=O)c1ncn2c1CN(C)C(=O)c1cc(F)ccc1-2 | 0.93 ± 0.11 |
| O=NN(CCCl)C(=O)NCCCl | 1.06 ± 0.097 |
| CCOc1cc(CC(=O)N[C@@H](CC(C)C)c2ccccc2N2CCCCC2)ccc1C(=O)O | 1.02 ± 0.044 |
| C#C[C@]1(O)CC[C@H]2[C@@H]3CCc4cc(O)ccc4[C@H]3CC[C@@]21C | 1.3 ± 0.13 |
